Like-named read-outs stand apart in the source and are kept apart here. Further values from the same series stand in other lists.
Target: M^pro (Severe acute respiratory syndrome coronavirus 2, UniProt P0DTD1)
Assay type: binding

Question: Which results are given for COc1cccc2[nH]c(C(=O)N[C@@H](CC(C)C)C(=O)N[C@H](/C=C/[N+](=O)[O-])C[C@@H]3CCNC3=O)cc12 [FGA146]?
Answer: Fraction unfolded (25 mM, 20 °C): -0.07706; Fraction unfolded (25 mM, 20.5 °C): 0.0593; Fraction unfolded (25 mM, 21 °C): -0.00904; Fraction unfolded (25 mM, 33 °C): 0.0786; Fraction unfolded (25 mM, 33.5 °C): -0.05017; Fraction unfolded (25 mM, 34 °C): 0.06047; Fraction unfolded (25 mM, 34.5 °C): -0.01983; Fraction unfolded (25 mM, 35 °C): 0.03448; Fraction unfolded (25 mM, 35.5 °C): -0.04231; Fraction unfolded (25 mM, 36 °C): 0.01333; Fraction unfolded (25 mM, 36.5 °C): 0.01655; Fraction unfolded (25 mM, 37 °C): 0.01632; Fraction unfolded (25 mM, 37.5 °C): 0.04079; Fraction unfolded (25 mM, 38 °C): 0.0059; Fraction unfolded (25 mM, 38.5 °C): 0.0724; Fraction unfolded (25 mM, 39 °C): -0.05253; Fraction unfolded (25 mM, 39.5 °C): -0.06377; Fraction unfolded (25 mM, 40 °C): 0.05897; Fraction unfolded (25 mM, 40.5 °C): 0.2474; Fraction unfolded (25 mM, 41 °C): 0.05081; Fraction unfolded (25 mM, 41.5 °C): 0.3107; Fraction unfolded (25 mM, 42 °C): 0.1845; Fraction unfolded (25 mM, 42.5 °C): 0.1749; Fraction unfolded (25 mM, 43 °C): 0.01336; Fraction unfolded (25 mM, 43.5 °C): 0.1337; Fraction unfolded (25 mM, 44 °C): 0.4157; Fraction unfolded (25 mM, 44.5 °C): 0.2834; Fraction unfolded (25 mM, 45 °C): 0.6539; Fraction unfolded (25 mM, 45.5 °C): 0.7235; Fraction unfolded (25 mM, 46 °C): 0.6473; Fraction unfolded (25 mM, 46.5 °C): 0.4957; Fraction unfolded (25 mM, 47 °C): 0.8613; Fraction unfolded (25 mM, 47.5 °C): 0.8732; Fraction unfolded (25 mM, 48 °C): 0.8705; Fraction unfolded (25 mM, 48.5 °C): 0.8937; Fraction unfolded (25 mM, 49 °C): 1.007; Fraction unfolded (25 mM, 49.5 °C): 0.8743; Fraction unfolded (25 mM, 50 °C): 0.8769; Fraction unfolded (25 mM, 50.5 °C): 1.037; Fraction unfolded (25 mM, 51 °C): 1.013; Fraction unfolded (25 mM, 51.5 °C): 1.018; Fraction unfolded (25 mM, 52 °C): 1.016; Fraction unfolded (25 mM, 52.5 °C): 1.031; Fraction unfolded (25 mM, 53 °C): 0.9532; Fraction unfolded (25 mM, 53.5 °C): 1.04; Fraction unfolded (25 mM, 54 °C): 0.8789; Fraction unfolded (25 mM, 54.5 °C): 1; Fraction unfolded (25 mM, 55 °C): 1.07; Fraction unfolded (25 mM, 55.5 °C): 1.013; Fraction unfolded (25 mM, 56 °C): 0.9226; Fraction unfolded (25 mM, 56.5 °C): 0.9616; Fraction unfolded (25 mM, 57 °C): 1.036; Fraction unfolded (25 mM, 57.5 °C): 1.029; Fraction unfolded (25 mM, 58 °C): 0.983; Fraction unfolded (25 mM, 58.5 °C): 1.036; Fraction unfolded (25 mM, 59 °C): 1.025; Fraction unfolded (25 mM, 59.5 °C): 0.9589; Fraction unfolded (25 mM, 60 °C): 0.9644; Fraction unfolded (25 mM, 60.5 °C): 1.026; Fraction unfolded (25 mM, 61 °C): 0.964; Fraction unfolded (25 mM, 61.5 °C): 0.9813; Fraction unfolded (25 mM, 62 °C): 1.01; Fraction unfolded (25 mM, 62.5 °C): 1.013; Fraction unfolded (25 mM, 63 °C): 0.9596; Fraction unfolded (25 mM, 63.5 °C): 1.031; Fraction unfolded (25 mM, 64 °C): 1.031; Fraction unfolded (25 mM, 64.5 °C): 1.049; Fraction unfolded (25 mM, 65 °C): 0.9471; Fraction unfolded (25 mM, 65.5 °C): 0.9932; Fraction unfolded (25 mM, 66 °C): 0.9745; Fraction unfolded (100 mM, 20 °C): 0.04267; Fraction unfolded (100 mM, 20.5 °C): -0.01602; Fraction unfolded (100 mM, 21 °C): 0.0059; Fraction unfolded (100 mM, 33 °C): 0.0786; Fraction unfolded (100 mM, 33.5 °C): -0.05017; Fraction unfolded (100 mM, 34 °C): 0.06047; Fraction unfolded (100 mM, 34.5 °C): -0.01983; Fraction unfolded (100 mM, 35 °C): 0.03448; Fraction unfolded (100 mM, 35.5 °C): -0.02452; Fraction unfolded (100 mM, 36 °C): 0.01123; Fraction unfolded (100 mM, 36.5 °C): 0.1676; Fraction unfolded (100 mM, 37 °C): 0.01918; Fraction unfolded (100 mM, 37.5 °C): 0.12; Fraction unfolded (100 mM, 38 °C): 0.2356; Fraction unfolded (100 mM, 38.5 °C): 0.07016; Fraction unfolded (100 mM, 39 °C): 0.273; Fraction unfolded (100 mM, 39.5 °C): 0.3854; Fraction unfolded (100 mM, 40 °C): 0.2776; Fraction unfolded (100 mM, 40.5 °C): 0.3535; Fraction unfolded (100 mM, 41 °C): 0.3626; Fraction unfolded (100 mM, 41.5 °C): 0.3626; Fraction unfolded (100 mM, 42 °C): 0.4645; Fraction unfolded (100 mM, 42.5 °C): 0.4952; Fraction unfolded (100 mM, 43 °C): 0.5051; Fraction unfolded (100 mM, 43.5 °C): 0.4723; Fraction unfolded (100 mM, 44 °C): 0.4876; Fraction unfolded (100 mM, 44.5 °C): 0.5511; Fraction unfolded (100 mM, 45 °C): 0.6282; Fraction unfolded (100 mM, 45.5 °C): 0.7309; Fraction unfolded (100 mM, 46 °C): 0.7887; Fraction unfolded (100 mM, 46.5 °C): 0.8063; Fraction unfolded (100 mM, 47 °C): 0.8768; Fraction unfolded (100 mM, 47.5 °C): 0.8562; Fraction unfolded (100 mM, 48 °C): 0.8853; Fraction unfolded (100 mM, 48.5 °C): 0.8898; Fraction unfolded (100 mM, 49 °C): 0.8979; Fraction unfolded (100 mM, 49.5 °C): 0.8905; Fraction unfolded (100 mM, 50 °C): 0.8425; Fraction unfolded (100 mM, 50.5 °C): 0.8846; Fraction unfolded (100 mM, 51 °C): 0.8748; Fraction unfolded (100 mM, 51.5 °C): 0.8744; Fraction unfolded (100 mM, 52 °C): 0.8776; Fraction unfolded (100 mM, 52.5 °C): 0.8803; Fraction unfolded (100 mM, 53 °C): 0.8955; Fraction unfolded (100 mM, 53.5 °C): 0.933; Fraction unfolded (100 mM, 54 °C): 0.9493; Fraction unfolded (100 mM, 54.5 °C): 1.013; Fraction unfolded (100 mM, 55 °C): 1.007; Fraction unfolded (100 mM, 55.5 °C): 0.9957; Fraction unfolded (100 mM, 56 °C): 1.002; Fraction unfolded (100 mM, 56.5 °C): 1.01; Fraction unfolded (100 mM, 57 °C): 0.9947; Fraction unfolded (100 mM, 57.5 °C): 0.991; Fraction unfolded (100 mM, 58 °C): 0.9805; Fraction unfolded (100 mM, 58.5 °C): 0.9602; Fraction unfolded (100 mM, 59 °C): 0.9536; Fraction unfolded (100 mM, 59.5 °C): 0.9821; Fraction unfolded (100 mM, 60 °C): 0.9922; Fraction unfolded (100 mM, 60.5 °C): 1.065; Fraction unfolded (100 mM, 61 °C): 1.048; Fraction unfolded (100 mM, 61.5 °C): 1.055; Fraction unfolded (100 mM, 62 °C): 1.018; Fraction unfolded (100 mM, 62.5 °C): 0.9734; Fraction unfolded (100 mM, 63 °C): 0.9259; Fraction unfolded (100 mM, 63.5 °C): 0.9303; Fraction unfolded (100 mM, 64 °C): 1.01; Fraction unfolded (100 mM, 64.5 °C): 0.9745; Fraction unfolded (100 mM, 65 °C): 0.9674; Fraction unfolded (100 mM, 65.5 °C): 1.009; Fraction unfolded (100 mM, 66 °C): 1.012
